Data from publication PMC12853711.

By UniProt entry, the sequences of proteins in these tests, tags left out.
UniProt Q99873: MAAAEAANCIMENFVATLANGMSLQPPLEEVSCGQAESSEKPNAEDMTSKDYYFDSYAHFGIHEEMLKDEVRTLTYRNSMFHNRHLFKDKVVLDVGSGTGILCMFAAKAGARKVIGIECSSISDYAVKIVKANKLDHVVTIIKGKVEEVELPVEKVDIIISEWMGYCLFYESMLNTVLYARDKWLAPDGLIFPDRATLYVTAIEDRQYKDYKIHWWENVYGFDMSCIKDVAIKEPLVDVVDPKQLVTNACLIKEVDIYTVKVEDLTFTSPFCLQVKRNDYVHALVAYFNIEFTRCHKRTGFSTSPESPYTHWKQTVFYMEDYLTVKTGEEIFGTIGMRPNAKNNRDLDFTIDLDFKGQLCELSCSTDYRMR
UniProt O14744: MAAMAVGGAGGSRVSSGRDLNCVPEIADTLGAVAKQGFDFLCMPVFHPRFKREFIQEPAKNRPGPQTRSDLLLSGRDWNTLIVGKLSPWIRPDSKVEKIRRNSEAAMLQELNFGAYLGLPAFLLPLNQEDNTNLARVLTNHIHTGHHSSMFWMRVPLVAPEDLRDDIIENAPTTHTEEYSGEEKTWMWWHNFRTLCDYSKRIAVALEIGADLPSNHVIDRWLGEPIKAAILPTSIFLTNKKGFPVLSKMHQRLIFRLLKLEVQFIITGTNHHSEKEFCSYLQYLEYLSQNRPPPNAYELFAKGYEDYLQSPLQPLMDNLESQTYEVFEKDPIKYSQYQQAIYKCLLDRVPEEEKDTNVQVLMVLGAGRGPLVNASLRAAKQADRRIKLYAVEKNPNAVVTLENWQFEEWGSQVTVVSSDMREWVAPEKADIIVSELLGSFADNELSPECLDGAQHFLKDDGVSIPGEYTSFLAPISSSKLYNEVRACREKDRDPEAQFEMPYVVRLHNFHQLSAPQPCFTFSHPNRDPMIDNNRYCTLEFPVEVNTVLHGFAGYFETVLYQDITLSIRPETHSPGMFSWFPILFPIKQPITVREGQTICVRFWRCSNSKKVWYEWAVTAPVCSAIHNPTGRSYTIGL

Target: T1, HA-tagged TRIM59 (UniProt Q8IWR1)
T1 sequence: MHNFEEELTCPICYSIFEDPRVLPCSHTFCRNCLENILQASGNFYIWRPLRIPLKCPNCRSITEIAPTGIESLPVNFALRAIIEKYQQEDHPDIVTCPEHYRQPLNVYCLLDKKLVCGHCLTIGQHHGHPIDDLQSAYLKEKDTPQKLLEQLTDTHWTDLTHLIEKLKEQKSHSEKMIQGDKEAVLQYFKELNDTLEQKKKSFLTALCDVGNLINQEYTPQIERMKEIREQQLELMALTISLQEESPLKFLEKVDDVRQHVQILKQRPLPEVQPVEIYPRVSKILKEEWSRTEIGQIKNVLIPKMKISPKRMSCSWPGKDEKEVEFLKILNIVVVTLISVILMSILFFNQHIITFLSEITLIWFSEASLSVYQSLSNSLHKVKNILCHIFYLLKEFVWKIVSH
Experiment: affinity purification with mass spectrometry; IP with an anti-HA antibody from SK-N-BE(2) cells stably expressing HA-TRIM59 or an empty vector, LC-MS; criterion of at least six unique peptides

Substance	binding
PRMT1 (from UniProt Q99873 1-371) (enzyme)	binds
PRMT5 (from UniProt O14744 1-637) (enzyme)	binds

Results are given in words; binding and its absence hold for the method and conditions named. Binding seen in cells or lysates may run through a third protein. Here binding means that the protein was enriched with, or labelled near, the bait; the list need not be complete. Where a sequence is shown, tags or fusion partners need not be part of it.
